Laboratory results: PubChem BioAssay AID504764 (Drosophila RNAi Screening Center, 2011)

Screen: 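Genome-wide screen for regulators of Notch-driven gene expression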 (primary screen)
Cells: Drosophila Kc167 cells
Reagent: long dsRNA against Drosophila genes
Duration: about 5 days (4 days dsRNA, then 24 h after transfection)
Challenge: transfection of constitutively active membrane-tethered Notch lacking the extracellular domain, read 24 h later
Read-out: 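Light from a Notch-responsive E(spl)m3 luciferase reporter under active Notch, with control-promoter and no-Notch reporter wells to normalise; raw counts from paired wells a and b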
Reading the numbers: induced reporter light, run 1, well a and induced reporter light, run 1, well b: higher = more light from the Notch target reporter with active Notch; control promoter light, run 1, well a and control promoter light, run 1, well b: higher = more light from the viral control promoter (cell number, transfection, viability); uninduced reporter light, run 1, well a: higher = more light from the Notch target reporter without active Notch
Hit rule: 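Hit if the duplicate-averaged log2 ratio of induced to control-promoter light gives a plate-wise z beyond ±2, or induced to uninduced beyond ±1.8; weak-control or discordant-duplicate wells dropped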
Meaning of the calls: active = modifier hit (raised or lowered Notch signal); inactive = not a hit
In all, the deposit lists about 22,000 reagents; shown is a random part of those with a known target gene and a result. In the full data, 403 (1.9%) are marked active. 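Unnormalised raw counts per well; ratio z-scores behind the hit calls and whether each hit raises or lowers signal are not deposited.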 A number with no mark means an inactive call. The numbers tell different reagents against one gene apart. Names joined by + are all predicted targets of the reagent. The record does not give: the amount of reagent.

induced reporter light, run 1, well a | induced reporter light, run 1, well b | control promoter light, run 1, well a | control promoter light, run 1, well b | uninduced reporter light, run 1, well a | target | reagent
1.11e5 | 1.32e5 | 1.88e5 | 1.83e5 | 9440 | CG6553 | 1
1.32e5 | 1.15e5 | 1.44e5 | 1.36e5 | 8025 | CG14109 | 1
1.67e5 | 1.43e5 | 1.56e5 | 1.50e5 | 15392 | CG2269 | 1
1.50e5 | 1.91e5 | 2.25e5 | 2.50e5 | 15090 | Mal-A1 | 1
2.05e5 | 2.15e5 | 2.15e5 | 2.17e5 | 17060 | CG33337 | 1
1.99e5 | 1.92e5 | 1.52e5 | 1.75e5 | 17145 | Su(var)205 | 1
1.44e5 | 1.40e5 | 64560 | 91375 | 10842 | CG5577 | 1
2.11e5 | 2.21e5 | 2.28e5 | 3.06e5 | 16940 | vig2 | 1
62945 | 95360 | 1.04e5 | 72970 | 4505 | Naa80 | 1
1.23e5 | 1.04e5 | 2.27e5 | 2.56e5 | 9390 | inaC | 1
1.24e5 | 1.31e5 | 90595 | 58830 | 10150 | CG6470 | 1
73000 | 89355 | 92065 | 93895 | 5010 | Ars2 | 1
55175 (active) | 80395 | 1.28e5 | 2.46e5 | 8145 | row | 1
1.06e5 | 1.06e5 | 1.63e5 | 1.24e5 | 7705 | row | 2
1.60e5 | 1.36e5 | 1.98e5 | 1.74e5 | 12465 | SPARC | 1
1.77e5 | 1.90e5 | 2.29e5 | 2.21e5 | 12540 | CG4960 | 1
93235 | 1.24e5 | 94405 | 64745 | 9065 | ds | 1
1.09e5 | 1.05e5 | 1.96e5 | 1.88e5 | 9190 | Jabba | 1
2.37e5 | 2.51e5 | 2.90e5 | 3.15e5 | 14825 | Fbxl4 | 1
2.34e5 | 2.35e5 | 3.21e5 | 3.29e5 | 17950 | CG15891 + CG15892 | 1
1.54e5 | 1.89e5 | 2.39e5 | 2.87e5 | 11165 | CG15891 + CG15892 | 2

Entries above whose target name begins with R or r (2):
induced reporter light, run 1, well a | induced reporter light, run 1, well b | control promoter light, run 1, well a | control promoter light, run 1, well b | uninduced reporter light, run 1, well a | target | reagent
55175 (active) | 80395 | 1.28e5 | 2.46e5 | 8145 | row | 1
1.06e5 | 1.06e5 | 1.63e5 | 1.24e5 | 7705 | row | 2

Next records follow:
induced reporter light, run 1, well a | induced reporter light, run 1, well b | control promoter light, run 1, well a | control promoter light, run 1, well b | uninduced reporter light, run 1, well a | target | reagent
1.82e5 | 1.50e5 | 1.94e5 | 1.90e5 | 12805 | CG32137 | 1
2.01e5 | 1.81e5 | 1.68e5 | 1.33e5 | 20270 | CG32137 | 2
95505 | 82980 | 73425 | 66565 | 6415 | ATPsynO | 1
1.69e5 | 1.36e5 | 2.32e5 | 2.15e5 | 13115 | CG13678 | 1
1.74e5 | 1.93e5 | 1.92e5 | 2.01e5 | 16725 | CG14333 (retired record) | 1
1.66e5 | 1.73e5 | 2.32e5 | 2.33e5 | 15215 | CG14333 (retired record) | 2
88405 | 93110 | 56020 | 77235 | 7345 | Adgf-A | 1
1.28e5 | 1.31e5 | 2.30e5 | 2.40e5 | 9360 | Tsp2A | 1
1.62e5 | 1.60e5 | 2.08e5 | 2.12e5 | 16500 | dila | 1
2.26e5 | 1.68e5 | 2.41e5 | 2.76e5 | 13160 | CG13937 | 1
82990 | 81220 | 1.58e5 | 1.23e5 | 7590 | Smyd4-2 | 1
1.48e5 | 1.26e5 | 1.21e5 | 46750 | 10810 | CG8289 | 1
1.90e5 | 1.49e5 | 2.02e5 | 1.87e5 | 12942 | CG5715 | 1
1.66e5 | 1.67e5 | 2.94e5 | 3.18e5 | 13510 | sage | 1
75590 | 72075 | 75640 | 63880 | 12820 | CG30470 (retired record) | 1
86850 | 93565 | 1.17e5 | 1.13e5 | 8395 | CG30470 (retired record) | 2
69840 | 75000 | 1.04e5 | 1.13e5 | 8455 | CG30470 (retired record) | 3
77920 | 80970 | 1.46e5 | 1.10e5 | 6620 | CG30470 (retired record) | 4
1.26e5 | 85310 | 1.21e5 | 1.04e5 | 6630 | CG13786 | 1
1.59e5 | 1.41e5 | 1.24e5 | 1.17e5 | 14945 | CSN6 | 1
1.73e5 (active) | 1.75e5 | 2.66e5 | 2.53e5 | 16275 | Trs33 | 1
2.12e5 | 2.08e5 | 2.48e5 | 2.24e5 | 19270 | Csgalnact | 1
65815 | 68335 | 52720 | 55940 | 2980 | Npc2c | 1
1.21e5 | 1.30e5 | 1.29e5 | 71555 | 10670 | CG16995 | 1
85420 (active) | 76685 | 1.66e5 | 1.32e5 | 10620 | CG14219 | 1
1.82e5 | 1.65e5 | 2.33e5 | 2.23e5 | 12150 | hoka | 1
53910 | 53380 | 1.22e5 | 1.45e5 | 4092 | Tudor-SN | 1
1.57e5 | 1.47e5 | 1.33e5 | 1.34e5 | 10945 | chn | 1
2.06e5 | 1.58e5 | 2.77e5 | 2.68e5 | 8620 | mat | 1
